Results as given in publication PMC7532997, “Cytotoxic Constituents of the Bark of Hypericum roeperianum towards Multidrug-Resistant Cancer Cells” (Evidence-based Complementary and Alternative Medicine : eCAM, 2020).

What was measured:
Assay in all cases: Resazurin reduction assay (RRA), 72 h
Assay type in all cases: cell-based
[1] = system: MDA-MB-231-BCRP breast cancer cells; conditions: IC50 MDA-MB-231-BCRP divided by IC50 MDA-MB-231-pcDNA
Description: (§1) Cell lines used in this work included drug-sensitive and drug-resistant phenotypes of earlier reported origin. They were all provided by Prof. Dr. Thomas Efferth from his cell lines collection; they have being used in cytotoxicity screening by our team for a decade. These include two hematological cancer cell lines, namely, the drug-sensitive CCRF-CEM leukemia cell line and its multidrug-resistant P-gp-over-expressing subline CEM/ADR5000 cells and […] carcinoma cell lines, namely, U87.MG glioblastoma cell line and its EGFR-transfected U87.MGΔEGFR subline, HCT116 (p53^+/+) colon cancer cell line and its knockout clone HCT116 (p53^−/^−), and MDA-MB-231-pcDNA3 breast cancer cell line and its BCRP-transfected multidrug-resistant MDA-MB-231-BCRP clone 23 cell line, as well as the normal AML12 hepatocytes, used to compare with HepG2 liver cancer cells.
(§2) The RRA was applied to evaluate the cytotoxicity of botanicals, the isolated phytochemicals (1–5, 7, and 8), and doxorubicin on the cell growth as reported earlier. Cells treated with various samples at different concentrations were incubated for 72 h in humidified 5% CO2 atmosphere at 37°C. Cells were further coloured with resazurin and incubated for 1–2 h; the fluorescence was further measured with an Infinite M2000 Pro™ plate reader (Tecan, Crailsheim, Germany) at 544 nm as the excitation wavelength and 590 nm as the emission wavelength. The IC50 values represented the concentrations of the sample required to inhibit 50% of cell proliferation and were calculated from a calibration curve by linear regression using Microsoft Excel 2007 [29].

[2] = system: U87MG.ΔEGFR glioblastoma cells; conditions: IC50 U87MG.ΔEGFR divided by IC50 U87MG
Description: as §1, §2

[3] = system: HCT116 (p53-/-) colon cancer cells; conditions: IC50 HCT116 (p53-/-) divided by IC50 HCT116 (p53+/+)
Description: as §1, §2

| SMILES | Degree of resistance [1] | Degree of resistance [2] | Degree of resistance [3] |
| --- | --- | --- | --- |
| O=c1c2cc(O)c(O)cc2oc2cc(O)cc(O)c12 [Compound 4, 1,3,6,7-tetrahydroxyxanthone] | <0.13 | 0.29 |  |
| COc1cccc2c1C(=O)c1c(O)c3c(c(O)c1C2=O)C[C@@](O)(C(=O)CO)C[C@@H]3O[C@H]1C[C@H](N)[C@H](O)[C@H](C)O1 [Doxorubicin, reference compound] | 6.14 | 3.79 | 3.73 |
| O=c1c2ccc(O)c(O)c2oc2cc(O)cc(O)c12 [Compound 5, 1,3,5,6-tetrahydroxyxanthone] | 0.84 | 0.96 | 1.49 |
| COc1cccc2c(=O)c3cc(O)ccc3oc12 [Compound 3, 2-hydroxy-5-methoxyxanthone] | 0.77 | 0.60 | >3.54 |
| COc1cc(C2Oc3ccc4c(=O)c5c(O)cc(O)cc5oc4c3OC2CO)cc(OC)c1O (stereo not shown) [Compound 7, 3′-hydroxymethyl-2′-(4″-hydroxy-3″,5″-dimethoxyphenyl)-5′,6′:5,6-(6,8-dihydroxyxanthone)-1′,4′-dioxane] | 1.07 | 0.43 |  |
| COc1cc(C2Oc3ccc4c(=O)c5ccccc5oc4c3OC2CO)cc(OC)c1O (stereo not shown) [Compound 8, 3′-hydroxymethyl-2′-(4″-hydroxy-3″,5″-dimethoxyphenyl)-5′,6′:5,6-(xanthone)-1′,4′-dioxane] | 0.83 | 0.86 | >2.26 |
| C[C@H]1C(=O)CC[C@@H]2[C@]1(C)CC[C@H]1[C@@]2(C)CC[C@@]2(C(=O)O)C3CC(C)(C)CC[C@]3(C)CC[C@]12C (stereo partly shown) [Compound 1, trichadonic acid] | 0.91 | 0.91 | 2.55 |
